Assay results: PubChem BioAssay AID1671190 (National Center for Advancing Translational Sciences (NCATS), 2021)
The campaign covered roughly 580,000 compounds. About 6,100 (1.1%) were called active. Inconclusive means that the source gave no clear call. Such entries were picked first, then a sample of the others. Calls come from the whole dose curve; as a rule, active = well fitted inhibition curve with a large enough effect; inconclusive = small, poorly fitted or top-dose-only effect, or another doubt; inactive = no such curve, though single readings can be large or run the other way. Where the call is inconclusive, the potency comes from a doubtful curve fit.

Amino acid sequences for entries named in this document (tags omitted).
UniProt P18054, whole entry, looked up: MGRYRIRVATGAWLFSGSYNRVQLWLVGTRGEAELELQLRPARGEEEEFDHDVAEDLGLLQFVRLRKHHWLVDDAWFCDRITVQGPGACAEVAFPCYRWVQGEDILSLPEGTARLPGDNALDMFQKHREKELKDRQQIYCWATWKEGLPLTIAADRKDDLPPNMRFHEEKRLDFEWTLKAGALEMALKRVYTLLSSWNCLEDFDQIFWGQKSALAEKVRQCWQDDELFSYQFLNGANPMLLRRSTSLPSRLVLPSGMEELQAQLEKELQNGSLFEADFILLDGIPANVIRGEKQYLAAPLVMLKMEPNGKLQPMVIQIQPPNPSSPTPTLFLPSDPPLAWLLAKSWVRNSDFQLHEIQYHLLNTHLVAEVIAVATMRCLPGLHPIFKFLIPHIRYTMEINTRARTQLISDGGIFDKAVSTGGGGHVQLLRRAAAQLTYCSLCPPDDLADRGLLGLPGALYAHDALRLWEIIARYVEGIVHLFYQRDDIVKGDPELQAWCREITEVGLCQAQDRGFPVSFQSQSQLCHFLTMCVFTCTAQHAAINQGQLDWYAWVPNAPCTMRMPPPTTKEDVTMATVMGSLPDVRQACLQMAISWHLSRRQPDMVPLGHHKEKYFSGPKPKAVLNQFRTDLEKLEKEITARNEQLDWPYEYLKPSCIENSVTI

Each compound was assayed against Polyunsaturated fatty acid lipoxygenase ALOX12 (Homo sapiens) (UniProt P18054) (assay: Primary qHTS assay for inhibitors of human arachidonate 12S-lipoxygenase (ALOX12): Round 2). Conditions: purified 12hLO, xylenol orange hydroperoxide absorbance; activity change, negative = inhibition: at 108 µM (top of the series) unless noted.
How it was run: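 Purified human 12hLO at 150 nM in 25 mM Hepes, 0.01% Triton X-100, pH 7.0, preincubated 15 min at room temperature with compound. Reaction started with 40 uM arachidonic acid, 30 min at room temperature. Hydroperoxide measured by Fe-xylenol orange, 573/405 nm absorbance ratio.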
% is set by controls: 0 for no effect and ±100 for the full control effect; potency is the fitted concentration of half-maximal effect.

Compound | Potency | activity change, negative = inhibition
CCOc1ccccc1N(CC(=O)NC1CC1)S(C)(=O)=O | inconclusive: 126 µM [inhibitor, single point] | 
CC(OC(=O)Cc1n[nH]c(=O)c2ccccc12)C(=O)c1ccc2c(c1)CCC2 (stereo not given) | inconclusive: 70.8 µM [inhibitor, partial curve, poor fit] | 
O=C(Nc1cc(C(=O)Nc2ccc(S(=O)(=O)O)cc2S(=O)(=O)O)cc(C(=O)Nc2ccc(S(=O)(=O)O)cc2S(=O)(=O)O)c1)Nc1cc(C(=O)Nc2ccc(S(=O)(=O)O)cc2S(=O)(=O)O)cc(C(=O)Nc2ccc(S(=O)(=O)O)cc2S(=O)(=O)O)c1 |  | inactive: 27.5%
S=c1[nH]nc(-c2ccccn2)n1/N=C/c1ccccc1 | inconclusive: 44.7 µM [inhibitor, partial curve, poor fit] | 
COCCCNC(=O)CCc1ccccc1 | inconclusive: 0.398 µM [inhibitor, full curve, poor fit] | 
CN(C)C(CNC(C(=O)Nc1ccc([N+](=O)[O-])cc1Br)c1ccccc1)c1ccccc1 (stereo not given) |  | inactive: -23.6%
Cc1cccc(C)c1-n1nnnc1C(C)(C)N1CCN(N=O)CC1 | inconclusive: 44.7 µM [inhibitor, single point] | 
O=S(=O)(NCCC1CC1(Cl)Cl)c1ccc(Cl)cc1 (stereo not given) | inconclusive: 112 µM [inhibitor, single point] | 
Cc1ccc(NC(=O)C2=C(c3ccccc3)NC(=S)NC2c2ccc(C)cc2)cc1 (stereo not given) | inconclusive: 44.7 µM [inhibitor, partial curve, poor fit] | 
CCOC(=O)C1CCN(S(=O)(=O)c2ccc(NC(=O)OC)cc2)CC1 |  | inactive: 0%
NNc1ccccc1Br | active: 8.91 µM | 
N#CCCN(C(=O)CSc1nc2nc(-c3cccs3)cc(C(F)(F)F)c2c(=O)[nH]1)c1ccccc1 |  | inactive: -0.936%
COc1cc2ccccc2cc1C(=O)NC(=S)Nc1cc(C(=O)O)ccc1C | inconclusive: 31.6 µM [inhibitor, partial curve, poor fit] | 
CCN(CC(=O)Nc1cccc(OC)c1)C(=O)c1ccc(-c2ccccc2Cl)o1 |  | inactive: -4.99%
N#Cc1cccnc1N1CC[C@@H](N2CCC(O)CC2)[C@H](O)C1 | inconclusive: 28.2 µM [inhibitor, full curve] | 
CC(Oc1ccc(C(C)(C)C)cc1)C(=O)NCC(c1ccco1)N1CCCC1 (stereo not given) |  | inactive: 1.28%
COc1ccc2c(c1)CCC[C@]1(C)O[C@@H]1C(=O)c1ccccc1O2 | inconclusive: 100 µM [inhibitor, partial curve, poor fit] | 
O=C(O)CCc1c(C(=O)O)[nH]c2ccccc12 | inconclusive: 63.1 µM [inhibitor, partial curve, poor fit] | 
Cc1cccnc1NC(=S)NCc1ccco1 | inconclusive: 39.8 µM [inhibitor, partial curve, poor fit] | 
CCCCCCc1cc2cc(C(=O)Nc3ccc(OC)cc3)c(=O)oc2cc1O |  | inactive: -17.6%
CC1CC2(CCCCC2)Nc2ccc3ccccc3c21 (stereo not given) | inconclusive: 35.5 µM [inhibitor, partial curve, poor fit] | 
CCCCNc1nc(Oc2ccc(=O)n(-c3ccccc3)n2)nc(N(CC)CC)n1 | inconclusive: 89.1 µM [inhibitor, partial curve, poor fit] | 
CCOC(=O)/C=C1\CN(Cc2cc(OC)c(OC)c(OC)c2)S(=O)(=O)c2ccc(C(F)(F)F)cc21 |  | inactive: -28.9%
CCn1cc(C(=O)NCc2ccc(Cl)cc2)c(=O)c2cc(S(=O)(=O)N3CCOCC3)ccc21 | inconclusive: 15.8 µM [inhibitor, partial curve, poor fit] | 

For convenience, part of the list above:
Compound | Potency | activity change, negative = inhibition
CCCCCCc1cc2cc(C(=O)Nc3ccc(OC)cc3)c(=O)oc2cc1O |  | inactive: -17.6%
CC1CC2(CCCCC2)Nc2ccc3ccccc3c21 (stereo not given) | inconclusive: 35.5 µM [inhibitor, partial curve, poor fit] | 

(more compounds)

Compound | Potency | activity change, negative = inhibition
c1ccc(Cn2ncc3c(Nc4ccccc4)ncnc32)cc1 | inconclusive: 141 µM [inhibitor, single point] | 
Cc1ccc(C(=O)N2CCN(S(=O)(=O)c3ccc(Br)cc3)CC2)o1 | inconclusive: 70.8 µM [inhibitor, partial curve, poor fit] | 
Cc1cccc(/C=N/n2c(-c3ccco3)n[nH]c2=S)c1 |  | inactive: -29.7%
O=C(Nc1ccccc1O)c1ccc(Cl)cc1 |  | inactive: -8.94%
CN1CC(=O)N(C2CCCNCC2)Cc2c(NCc3ccc4c(c3)OCO4)ncnc21 (stereo not given) | inconclusive: 15.8 µM [inhibitor, full curve, poor fit] | 
O=C(CC1CCCC1)N1CCCC(c2noc(COc3ccccc3F)n2)C1 (stereo not given) |  | inactive: 13.9%
CC(=O)c1cccc(NC(=O)c2cc(-c3ccco3)nc3ccccc23)c1 | active: 28.2 µM | 
COc1ccc(C(=O)c2coc3c2C(=O)C(=O)c2ccccc2-3)cc1 | inconclusive: 112 µM [inhibitor, single point] | 
Cc1c(Cl)cccc1Nc1n[nH]c(=S)s1 | active: 22.4 µM | 
CCCCCCCCNCCS(=O)(=O)NC1CCCCC1 | inconclusive: 79.4 µM [inhibitor, single point] | 
O=C(Cn1cnc2c(oc3nc4c(cc32)CCCC4)c1=O)Nc1ccccc1 |  | inactive: -9.46%
CC(C)=CCN1CCN(Cc2cc3ccccc3[nH]2)CC1CCO (stereo not given) | inconclusive: 50.1 µM [inhibitor, partial curve, poor fit] | 
CCOc1cccc(/C=C/C(=O)c2ccc(Br)cc2)c1OC | inconclusive: 7.94 µM [inhibitor, full curve, poor fit] | 
COC(=O)Cn1c2ccc(F)cc2c2nc(C)sc21 | inconclusive: 56.2 µM [inhibitor, partial curve, poor fit] | 
O=S(=O)(NCCCN1CCOCC1)c1ccc(Cl)s1 |  | inactive: -2.6%
O=C(CSc1nc2nn(-c3ccccc3)c(=O)c-2c2n1CCCCC2)Nc1ccccc1[N+](=O)[O-] | inconclusive: 100 µM [inhibitor, partial curve, poor fit] | 
Cc1ccc(C(=O)Nc2ccc(S(=O)(=O)N3CCc4ccccc43)cc2)o1 | inconclusive: 39.8 µM [inhibitor, partial curve] | 
O=C(c1n[nH]c(=O)c2ccccc12)N1CCC(CCc2ccccc2)CC1 |  | inactive: 14.8%
O=C(COc1ccc([N+](=O)[O-])cc1)N1CCC(c2nc3ccccc3s2)CC1 |  | inactive: -26.7%
CCOc1ccc(NC(=S)NNc2ccnc3cc(Cl)ccc23)cc1 | inconclusive: 31.6 µM [inhibitor, partial curve, poor fit] | 
COc1ccc(Sc2ccc(-c3nc4cnccn4c3NC3CCCCC3)cc2OC)cc1 |  | inactive: -11.5%
COc1ccc(Oc2c(C)oc3cc(OCC(=O)O)ccc3c2=O)cc1 | inconclusive: 35.5 µM [inhibitor, partial curve, poor fit] | 
Oc1ccc(/C=N/n2c(COc3ccccc3)n[nH]c2=S)c(O)c1 | active: 44.7 µM | 
Cc1ccc(NC(=O)c2ccc(C(C)(C)C)cc2)c(C(=O)c2ccccc2)c1 |  | inactive: 2.45%

Compound | Potency | activity change, negative = inhibition
Cn1ncc2c(Nc3ccccc3Cl)nc(Cl)nc21 |  | inactive: 12.5%
COc1ccc(C(=O)NCc2nnc(SC)n2-c2ccccc2C)c(OC)c1OC |  | inactive: 13%
Cc1nc(-c2ccc(OC(F)(F)F)cc2)sc1C(=O)N1CCC2(CC1)OCCO2 |  | inactive: -28.7%
Cc1cccc(N2CCN(C(=O)C3CCC(CNS(=O)(=O)c4cccs4)CC3)CC2)c1C (stereo not given) |  | inactive: 6.89%
CC(=O)NC(NC(=S)Nc1cccc(C)c1)C(Cl)(Cl)Cl (stereo not given) | inconclusive: 100 µM [inhibitor, single point] | 
Cn1cccc1/C=N/n1c(-c2ccc(C(C)(C)C)cc2)n[nH]c1=S | active: 25.1 µM | 
COc1cc([C@H]2Oc3cc([C@H]4Oc5cc(O)cc(O)c5C(=O)[C@H]4O)ccc3O[C@H]2CO)ccc1O | inconclusive: 17.2 µM [inhibitor, partial curve, poor fit] | 
Cc1cc(/C=C2\Cc3ccccc3C2=O)c(C)n1-c1ccccc1 | inconclusive: 50.1 µM [inhibitor, partial curve, poor fit] | 
O=C(NCCc1ccc(F)cc1)c1cc2cc(F)ccc2[nH]1 | inconclusive: 89.1 µM [inhibitor, single point] | 
C=CCNCCOCCSc1ccc(Cl)cc1 | inconclusive: 0.398 µM [inhibitor, full curve, poor fit] | 
CN1CCN(NC(=O)c2ccccc2Br)CC1 | inconclusive: 63.1 µM [inhibitor, single point] | 
Cc1cccc(OCC(=O)Nc2ccc(NC(=O)c3ccccc3)cc2)c1 |  | inactive: -13%
CCCCC(=O)N(C)c1c(CC)nc2c(OCCOc3ccc(F)cc3)cccn12 |  | inactive: 3.8%
CC(C)=CCCC(C)CN(C)CCc1ccccn1 (stereo not given) | inconclusive: 2.51 µM [inhibitor, full curve, poor fit] | 
COCc1nnc(NS(=O)(=O)c2ccc(C)cc2)s1 | inconclusive: 35.5 µM [inhibitor, partial curve, poor fit] | 
Cc1ccc2c(c1)nc1n2[C@@H](CN(Cc2ccc(C(=O)O)cc2)Cc2ccc(C(=O)O)cc2)COC1 | inconclusive: 20 µM [inhibitor, single point] | 
NC(N)=N/N=C/c1ccc(OCc2ccc(Cl)cc2)cc1 | inconclusive: 70.8 µM [inhibitor, partial curve, poor fit] | 
COCCN1C(=O)c2ccccc2C(C(=O)NCCCN2CCCC2)C1c1c[nH]c2ccccc12 (stereo not given) | inconclusive: 6.31 µM [inhibitor, full curve, poor fit] | 
O=C(NC(=S)Nn1cnnc1)c1ccc(F)cc1Cl | active: 15.8 µM | 
O=C1C(C=Nc2ccccc2O)=C(O)c2ccccc21 |  | inactive: 0.879%
Cc1ccc(CNCc2ccc(-c3ccc(F)cc3)o2)cc1 | inconclusive: 14.1 µM [inhibitor, full curve, poor fit] | 
CCCc1ccc(Oc2cn[nH]c2-c2ccc(O)c(C)c2O)cc1 | inconclusive: 35.5 µM [inhibitor, full curve, poor fit] | 

Looked up above.
Under Potency, CCCc1ccc(Oc2cn[nH]c2-c2ccc(O)c(C)c2O)cc1 has the entry inconclusive: 35.5 µM [inhibitor, full curve, poor fit]
Under Potency, COc1cc([C@H]2Oc3cc([C@H]4Oc5cc(O)cc(O)c5C(=O)[C@H]4O)ccc3O[C@H]2CO)ccc1O has the entry inconclusive: 17.2 µM [inhibitor, partial curve, poor fit]
